This data set can be described thus: general procedure: Fmoc solid-phase peptide synthesis; Fmoc-ProO-chlorotrityl resin, Fmoc-OicO-chlorotrityl resin, Fmoc-AlaO-chlorotrityl resin. As to conditions: whole synthesis.

Starred links: 1 amine or outer side, 2 acyl side, 3 side chain; linkers in the order of their positions; H or OH if unused. Positions of bridges follow the written chain, without caps; N, C: chain ends. Non-standard residues stand in square brackets, D forms with d. No end group written: not given here. Oic = O=C(O)[C@@H]1C[C@@H]2CCCC[C@@H]2N1; X1 = O=C(C(O)CCN[*:1])[*:2]; Dab = NCC[C@H](N)C(=O)O

Consider “Tyr-His-Ala-Cys-Ser-Ala-^DPro-Dab-Arg-Tyr-Cys-Tyr-Gln-Lys-(ABu)G-Pro”, for which the “final purity (method not given)” value was 95%.

For “Tyr-His-Ala-Cys-Ser-Ala-^DPro-Dab-Arg-Tyr-Cys-Tyr-Gln-Lys-NMe^DIle-Pro”, the “final purity (method not given)” value is recorded as 95%.

On to “Tyr-His-Ala-Cys-Ser-Ala-^DPro-Dab-Arg-Tyr-Cys-Tyr-Gln-Lys-NMe^DLys-Pro”, for which the “final purity (method not given)” value is listed as 88%.

With “Tyr-His-Ala-Cys-Ser-Ala-^DPro-Dab-Arg-Tyr-Cys-Tyr-Gln-Lys-NMe^DTyr-Pro”, the “final purity (method not given)” value came out at 95%.

In the case of “Tyr-His-Ala-Cys-Ser-Ala-^DPro-Dab-Arg-Tyr-Cys-Tyr-Gln-Lys-^D4Pal-Pro”, the “final purity (method not given)” value is on record as 95%.

As for “Tyr-His-Ala-Cys-Ser-Ala-^DPro-Dab-Arg-Tyr-Cys-Tyr-Gln-Lys-^DCha-Pro”, the “final purity (method not given)” value came out at 95%.

As for “Tyr-His-Ala-Cys-Ser-Ala-^DPro-Dab-Arg-Tyr-Cys-Tyr-Gln-Lys-^DHis(Bzl)-Pro”, the “final purity (method not given)” value turned out to be 95%.

With “Tyr-His-Ala-Cys-Ser-Ala-^DTrp-Dab-Arg-Tyr-Cys-Tyr-Gln-Lys-^DIle-Pro”, the “final purity (method not given)” value was found to be 95%.

Regarding “Tyr-His-Ala-Cys-Ser-Ala-^DTyr-Dab-Arg-Tyr-Cys-Tyr-Gln-Lys-NMe^DAla-Pro”, the “final purity (method not given)” value was 95%.

As to “Tyr-His-Ala-Cys-^DalloT-Ala-^DPro-Dab-Arg-Tyr-Cys-Tyr-Gln-Lys-^DPro-Pro”, the “final purity (method not given)” value is on record as 95%.

As for “Tyr-His-Ala-Cys-β^3S-Ala-^DPro-Dab-Arg-Tyr-Cys-Tyr-Gln-Lys-^DPro-Pro”, the “final purity (method not given)” value came out at 95%.

Regarding “YHACSA[dP][Dab]RYCYQK[dP][Oic] (cysteine pairing not given here)”, the “final purity (method not given)” value is on record as 95%.

Take “cyclo(YHAC[X1]A[dP][Dab]RYCYQK[dP]P) (disulfide 4-11; SMILES C[C@@H]1NC(=O)[C@H](Cc2c[nH]cn2)NC(=O)[C@H](Cc2ccc(O)cc2)NC(=O)[C@@H]2CCCN2C(=O)[C@H]2CCCN2C(=O)[C@H](CCCCN)NC(=O)[C@H](CCC(N)=O)NC(=O)[C@H](Cc2ccc(O)cc2)NC(=O)[C@@H]2CSSC[C@H](NC1=O)C(=O)NCCC(O)C(=O)N[C@@H](C)C(=O)N1CCC[C@@H]1C(=O)N[C@@H](CCN)C(=O)N[C@@H](CCCNC(=N)N)C(=O)N[C@@H](Cc1ccc(O)cc1)C(=O)N2)”: the “final purity (method not given)” value was 95%.

Regarding “γ^4Y-His-Ala-Cys-Ser-Ala-^DPro-Dab-Arg-Tyr-Cys-Tyr-Gln-Lys-^DPro-Pro”, the “final purity (method not given)” value was 95%.
